Source: the supplement of paper PMC4604168 (melanoma cell lines)
This is one part of the list. Single values are uncertain, as repeats are few or missing.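 Cells were imaged in 1,536-well plates, and nuclei stained with an antibody against cleaved PARP were counted against all DNA-stained nuclei to give the apoptosis fraction. Screening doses were chosen to leave most cells alive, and resting and induced cleaved-PARP levels differ strongly between cell lines.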

system: CBRC016 (line from a melanoma biopsy); test: cleaved PARP positive nuclei fraction relative to DMSO control; melanoma cells; higher = more apoptosis; conditions: library dose: low library concentration; 72 h

| SMILES | cleaved PARP positive nuclei fraction [%] |
| --- | --- |
| CC[C@]1(O)C[C@H]2CN(CCc3c([nH]c4ccccc34)[C@@](C(=O)OC)(c3cc4c(cc3OC)N(C=O)[C@H]3[C@@](O)(C(=O)OC)[C@H](OC(C)=O)[C@]5(CC)C=CCN6CC[C@]43[C@@H]65)C2)C1 [vincristine] + CN(C)S(=O)(=O)c1ccc2c(c1)/C(=C/c1cc3c([nH]1)CCCC3)C(=O)N2 [SU6656] (first compound 0.0001 µM, partner dose 0.4 µM) | 166 |
| O=C(/C=C/c1cccnc1)NCCCCC1CCN(C(=O)c2ccccc2)CC1 + CN(C)S(=O)(=O)c1ccc2c(c1)/C(=C/c1cc3c([nH]1)CCCC3)C(=O)N2 [SU6656] (first compound 0.01 µM, partner dose 0.4 µM) | 1400 |
| Cc1ccc(Nc2nccc(N(C)c3ccc4c(C)n(C)nc4c3)n2)cc1S(N)(=O)=O [Pazopanib] + NC(=O)Nc1cc(-c2cccc(F)c2)sc1C(=O)N[C@H]1CCCNC1 [AZD7762] (first compound 0.4 µM, partner dose 0.02 µM) | 99 |
| Cc1cn(-c2cc(NC(=O)c3ccc(C)c(Nc4nccc(-c5cccnc5)n4)c3)cc(C(F)(F)F)c2)cn1 [nilotinib] + NC(=O)Nc1cc(-c2cccc(F)c2)sc1C(=O)N[C@H]1CCCNC1 [AZD7762] (first compound 0.2 µM, partner dose 0.02 µM) | 89.2 |
| CCCCCCCCCCCCCCCCCCOP(=O)([O-])OC1CC[N+](C)(C)CC1 [Perifosine] + C[C@@H]1CCN(C(=O)CC#N)C[C@@H]1N(C)c1ncnc2[nH]ccc12 [CP690550] (first compound 0.4 µM, partner dose 1 µM) | 32.7 |
